Laboratory results from patent US7928137B2, “Meta-benzamidine derivatives as serine protease inhibitors” (Tularik Limited, priority 1997, dated 2011).
For at least one compound, name, drawing or mass did not settle the structure.

Key:
plasma [1] = test: Kaolin Activated Partial Thromboplastin Time Test (APTT); assay type: biochemical; details: 37°
Experimental: Kaolin Activated Partial Thromboplastin Time Test Protocol
(§1) Venous blood was collected into 3.2% (0.109 m) trisodium citrate vacutainer tubes at 1 volume of anticoagulant to nine volumes of blood.
(§2) The blood cells were separated by centrifugation at 700 g for ten minutes to yield plasma, which was frozen at […] until required.
(§3) To perform the test, 100 μl of plasma was pipetted into in a glass test tube, 1 μl of test compound in DMSO was added, and allowed to warm to 37° over two minutes.
100 μl of APTT reagent resuspended in Owren's buffer (Thrombosis Reference Centre University of Manchester, withington Hospital, Manchester) was added, mixed thoroughly, and 100 μl of prewarmed kaolin suspension in Owren's buffer added.
This mixture was incubated for ten minutes at 37°, with regular gentle mixing by tilting through a 90° angle, three times sequentially at one minute intervals to maintain the kaolin in suspension.
After ten minutes 100 μl of 25 mM calcium chloride solution was added, the suspension redispersed by mixing as above and the time to clot formation recorded.
(§4) Data from a series of observations and test compound concentrations are analysed by a SAS statistical analysis program and a CT2 (Concentration required to double clotting time) for each compound is generated.

plasma [2] = test: Partial Thromboplastin Time Test (PT, tissue thromboplastin reagent); assay type: biochemical; details: Manchester (tissue thromboplasin) reagent, 37°
Experimental: Partial Thromboplastin Time Test Protocol
as §1, §2, §3
100 μl of warm (37°) Manchester (tissue thromboplasin) reagent (Helena Biosciences, UK) was added, allowed to equilibrate for sixty seconds. 100 μl of warm (37°) 25 mM calcium chloride solution was added to initiate clotting.
The test tube was tilted three times through a 90° angle every five seconds to mix the reagents and the time to clot formation recorded.
as §4

| Structure (SMILES) | APTT CT2 (Concentration required to double clotting time) (plasma [1]) | PT CT2 (Concentration required to double clotting time) (plasma [2]) |
| --- | --- | --- |
| N=C(N)c1cccc(C(=O)N[C@@H](C(=O)NCc2cccc3ccccc23)c2ccccc2)c1 [Example 65, 3-Amidino-benzoyl-D-phenylglycine-1-naphthylmethylamide] | 9.7 µM | 13 µM |
| C[C@@H](NC(=O)[C@H](NC(=O)c1cccc(C(=N)N)c1)c1ccccc1)c1cccc2ccccc12 [Example 80, 3-Amidino-benzoyl-D-phenylglycine-R-1-(1-naphthyl)ethylamide] | – | 13 µM |
